According to publication PMC6637133, “SPRTN protease and checkpoint kinase 1 cross-activation loop safeguards DNA replication” (Nature Communications, 2019):
Numbering of substitutions follows the chain as printed. Like-named read-outs stand apart in the source and are kept apart here. These are yes or no findings as the source states them, for the method shown. Binding seen in cells or lysates may run through a third protein. Some results given as binding are weak or reduced against the parent protein; the word gives no strength. One block for each molecule: values may come before it.

By UniProt entry, the sequences of proteins in these tests, tags left out.
UniProt Q13535: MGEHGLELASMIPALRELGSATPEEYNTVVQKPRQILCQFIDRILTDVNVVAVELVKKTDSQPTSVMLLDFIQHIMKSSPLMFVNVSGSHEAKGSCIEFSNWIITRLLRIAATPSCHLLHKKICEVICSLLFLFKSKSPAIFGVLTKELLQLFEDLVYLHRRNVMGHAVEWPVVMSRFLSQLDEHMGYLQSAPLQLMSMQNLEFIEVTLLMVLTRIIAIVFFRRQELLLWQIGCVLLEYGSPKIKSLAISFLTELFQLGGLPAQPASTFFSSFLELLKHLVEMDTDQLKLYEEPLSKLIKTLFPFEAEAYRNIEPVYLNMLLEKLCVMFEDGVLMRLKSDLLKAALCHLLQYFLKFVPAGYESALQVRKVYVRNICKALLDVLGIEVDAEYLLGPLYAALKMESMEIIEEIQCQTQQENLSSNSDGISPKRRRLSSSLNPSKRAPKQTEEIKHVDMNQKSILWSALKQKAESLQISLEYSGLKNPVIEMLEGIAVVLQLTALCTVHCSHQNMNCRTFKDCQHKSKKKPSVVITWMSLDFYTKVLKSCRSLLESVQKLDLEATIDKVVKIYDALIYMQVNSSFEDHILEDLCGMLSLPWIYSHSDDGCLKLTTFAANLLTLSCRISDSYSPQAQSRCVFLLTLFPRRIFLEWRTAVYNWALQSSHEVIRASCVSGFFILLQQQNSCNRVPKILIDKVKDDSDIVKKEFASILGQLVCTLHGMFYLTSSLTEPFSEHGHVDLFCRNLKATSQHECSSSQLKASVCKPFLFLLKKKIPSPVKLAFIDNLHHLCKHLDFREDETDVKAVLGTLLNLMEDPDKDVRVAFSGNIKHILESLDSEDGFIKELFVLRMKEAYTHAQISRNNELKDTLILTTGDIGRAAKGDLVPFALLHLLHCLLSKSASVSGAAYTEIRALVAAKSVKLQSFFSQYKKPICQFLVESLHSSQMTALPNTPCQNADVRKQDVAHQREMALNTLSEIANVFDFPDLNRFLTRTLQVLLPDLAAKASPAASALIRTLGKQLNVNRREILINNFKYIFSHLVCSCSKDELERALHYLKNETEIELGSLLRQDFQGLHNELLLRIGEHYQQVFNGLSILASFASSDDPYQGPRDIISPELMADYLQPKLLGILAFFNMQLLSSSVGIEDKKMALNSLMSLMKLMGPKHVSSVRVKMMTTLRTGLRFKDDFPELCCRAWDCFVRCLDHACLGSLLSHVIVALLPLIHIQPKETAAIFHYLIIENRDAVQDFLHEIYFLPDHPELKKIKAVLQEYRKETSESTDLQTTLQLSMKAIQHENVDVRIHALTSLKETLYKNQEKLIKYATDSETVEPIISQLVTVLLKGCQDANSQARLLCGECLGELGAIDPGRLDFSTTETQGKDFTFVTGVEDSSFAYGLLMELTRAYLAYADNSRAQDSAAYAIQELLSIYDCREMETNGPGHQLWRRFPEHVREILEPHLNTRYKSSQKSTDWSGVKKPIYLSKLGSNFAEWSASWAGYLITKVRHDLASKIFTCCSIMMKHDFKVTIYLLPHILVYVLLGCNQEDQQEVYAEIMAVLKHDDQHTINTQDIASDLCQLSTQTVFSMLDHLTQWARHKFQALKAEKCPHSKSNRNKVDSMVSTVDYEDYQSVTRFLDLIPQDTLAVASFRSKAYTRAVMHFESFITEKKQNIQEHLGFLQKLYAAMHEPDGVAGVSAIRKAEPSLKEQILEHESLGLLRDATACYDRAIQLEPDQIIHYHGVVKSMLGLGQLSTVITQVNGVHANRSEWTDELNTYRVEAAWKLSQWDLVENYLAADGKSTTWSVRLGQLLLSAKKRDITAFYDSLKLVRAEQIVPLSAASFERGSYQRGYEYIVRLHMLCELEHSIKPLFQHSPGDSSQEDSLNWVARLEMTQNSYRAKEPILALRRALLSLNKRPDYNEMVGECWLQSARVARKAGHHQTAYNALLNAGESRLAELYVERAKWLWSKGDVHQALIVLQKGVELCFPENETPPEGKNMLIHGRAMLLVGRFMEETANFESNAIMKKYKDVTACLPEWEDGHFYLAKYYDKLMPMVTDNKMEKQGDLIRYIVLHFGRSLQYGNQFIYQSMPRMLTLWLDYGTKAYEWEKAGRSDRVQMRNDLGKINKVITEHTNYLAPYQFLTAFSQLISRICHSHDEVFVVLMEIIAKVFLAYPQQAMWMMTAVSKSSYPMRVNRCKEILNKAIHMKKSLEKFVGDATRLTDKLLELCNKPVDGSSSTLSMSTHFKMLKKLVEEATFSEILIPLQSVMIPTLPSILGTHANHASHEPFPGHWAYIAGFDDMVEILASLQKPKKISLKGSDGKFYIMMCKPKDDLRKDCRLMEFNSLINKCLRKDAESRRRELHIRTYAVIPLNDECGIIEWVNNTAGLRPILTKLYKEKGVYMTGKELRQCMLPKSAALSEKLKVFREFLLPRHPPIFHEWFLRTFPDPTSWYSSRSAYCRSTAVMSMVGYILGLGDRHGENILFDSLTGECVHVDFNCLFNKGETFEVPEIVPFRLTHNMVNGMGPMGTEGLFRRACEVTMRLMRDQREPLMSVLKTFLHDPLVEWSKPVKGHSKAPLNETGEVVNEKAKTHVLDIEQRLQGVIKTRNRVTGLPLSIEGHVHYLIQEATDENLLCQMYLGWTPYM

What was measured:
Assay in all cases: co-IP; SPRTN-cSSH captured on Strep-Tactin sepharose from non-denaturing HEK293 whole cell lysates (1% Triton, 150 mM NaCl; pellet digested with Benzonase and pooled), 2 h at 4 °C, washes with 0.05% NP-40; immunoblot; cells under normal conditions or with low-dose CPT (100 nM)
[1] = target: T1, SPRTN-wt-cSSH (human) (UniProt Q9H040)
T1 sequence: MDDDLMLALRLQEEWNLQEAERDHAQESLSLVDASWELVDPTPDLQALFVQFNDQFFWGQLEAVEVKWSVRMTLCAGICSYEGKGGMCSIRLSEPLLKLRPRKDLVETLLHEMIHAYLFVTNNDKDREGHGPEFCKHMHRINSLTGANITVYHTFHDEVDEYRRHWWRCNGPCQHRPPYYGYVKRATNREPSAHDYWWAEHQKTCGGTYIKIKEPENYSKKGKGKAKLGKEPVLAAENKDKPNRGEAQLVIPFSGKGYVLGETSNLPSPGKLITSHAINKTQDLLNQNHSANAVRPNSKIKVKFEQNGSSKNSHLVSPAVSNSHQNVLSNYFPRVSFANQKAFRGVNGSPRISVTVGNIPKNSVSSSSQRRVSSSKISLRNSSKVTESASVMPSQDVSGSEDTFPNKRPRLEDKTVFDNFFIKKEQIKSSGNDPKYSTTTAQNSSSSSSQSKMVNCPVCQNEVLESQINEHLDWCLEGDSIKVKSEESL

[2] = target: T2, SPRTN-Y117C-cSSH (human) (UniProt Q9H040)
T2 sequence: T1 sequence with Y117C

[3] = target: T1, SPRTN-wt-cSSH (human); remark: listed apart in the source

binding [1]: no binding
Molecule: ATR (from UniProt Q13535 1-2644) (enzyme)

binding [2]: binds
binding [3]: binds
B1: MCM3 (protein, UniProt P25205 1-808)
chain: MAGTVVLDDVELREAQRDYLDFLDDEEDQGIYQSKVRELISDNQYRLIVNVNDLRRKNEKRANRLLNNAFEELVAFQRALKDFVASIDATYAKQYEEFYVGLEGSFGSKHVSPRTLTSCFLSCVVCVEGIVTKCSLVRPKVVRSVHYCPATKKTIERRYSDLTTLVAFPSSSVYPTKDEENNPLETEYGLSVYKDHQTITIQEMPEKAPAGQLPRSVDVILDDDLVDKAKPGDRVQVVGTYRCLPGKKGGYTSGTFRTVLIACNVKQMSKDAQPSFSAEDIAKIKKFSKTRSKDIFDQLAKSLAPSIHGHDYVKKAILCLLLGGVERDLENGSHIRGDINILLIGDPSVAKSQLLRYVLCTAPRAIPTTGRGSSGVGLTAAVTTDQETGERRLEAGAMVLADRGVVCIDEFDKMSDMDRTAIHEVMEQGRVTIAKAGIHARLNARCSVLAAANPVYGRYDQYKTPMENIGLQDSLLSRFDLLFIMLDQMDPEQDREISDHVLRMHRYRAPGEQDGDAMPLGSAVDILATDDPNFSQEDQQDTQIYEKHDNLLHGTKKKKEKMVSAAFMKKYIHVAKIIKPVLTQESATYIAEEYSRLRSQDSMSSDTARTSPVTARTLETLIRLATAHAKARMSKTVDLQDAEEAVELVQYAYFKKVLEKEKKRKKRSEDESETEDEEEKSQEDQEQKRKRRKTRQPDAKDGDSYDPYDFSDTEEEMPQVHTPKTADSQETKESQKVELSESRLKAFKVALLDVFREAHAQSIGMNRLTESINRDSEEPFSSVEIQAALSKMQDDNQVMVSEGIIFLI
